From patent US20160244527A1
No constants are given. Whether binding was seen depends on the method and setting. Some entries that bind do so weakly or less than the wild type. Blank lines part the entries; values can stand above or below the binder they belong to.

Amino acid sequences for entries named in this document (tags omitted).
UniProt P70658: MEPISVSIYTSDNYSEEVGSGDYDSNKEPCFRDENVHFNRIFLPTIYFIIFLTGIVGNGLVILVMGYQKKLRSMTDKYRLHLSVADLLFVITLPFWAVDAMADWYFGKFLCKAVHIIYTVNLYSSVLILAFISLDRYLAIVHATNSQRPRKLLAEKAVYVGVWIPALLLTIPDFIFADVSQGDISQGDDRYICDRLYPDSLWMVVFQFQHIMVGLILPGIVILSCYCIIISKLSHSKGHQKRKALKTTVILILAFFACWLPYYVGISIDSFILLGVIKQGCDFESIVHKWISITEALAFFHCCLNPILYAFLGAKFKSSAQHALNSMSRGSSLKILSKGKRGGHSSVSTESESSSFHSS
UniProt P61073: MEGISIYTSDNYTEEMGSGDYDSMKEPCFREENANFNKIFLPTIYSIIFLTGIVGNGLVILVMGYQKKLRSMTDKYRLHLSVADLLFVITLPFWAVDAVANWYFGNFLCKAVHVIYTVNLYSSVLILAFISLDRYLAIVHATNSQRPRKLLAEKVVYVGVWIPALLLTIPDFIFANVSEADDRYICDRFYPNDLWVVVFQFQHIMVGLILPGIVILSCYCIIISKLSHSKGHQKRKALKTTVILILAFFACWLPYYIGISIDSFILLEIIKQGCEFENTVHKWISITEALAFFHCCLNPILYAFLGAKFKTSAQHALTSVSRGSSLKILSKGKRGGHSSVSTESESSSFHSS

Tests used:
[1] = target: mouse CXCR4 (mouse) (UniProt P70658); test: flow cytometry (EasyCyte) on transiently transfected HEK293T/17 cells
[2] = target: mouse CXCR4 (mouse) (UniProt P70658); test: EasyCyte flow cytometry on HEK293T/17 cells transiently transfected with mouse CXCR4, Fugene without DNA as negative control; scFv level according to the example, amount not given
[3] = target: mouse CXCR4 (mouse) (UniProt P70658); test: flow cytometry (EasyCyte), scFv on HEK-293 cells transiently transfected with mouse CXCR4
[4] = target: CXC chemokine receptor 4 (CXCR4), human (human) (UniProt P61073); test: flow cytometry (EasyCyte), purified scFv

binding [1]: binds | binding [2]: binds | binding [3]: binds
B1: C-9P21 scFv (scFv)
scFv: QVQLQESGGGLVHPGGSLRLSCAASGFTFSSYWMHWVRQAPGKGLVWVSRINSDGSSTSYADSVKGRFTISRDNAKNTLYLQMNSLRAEDTAVYYCARKILGVGARSRRYFDYWGQGTMVTVSSKLSGSASAPKLEEGEFSEARVETTLTQSPGTLSLSPGERATLSCRASQSVVSNYLAWYQQKPGQAPRLLISGASNRATGISDRFSGSGSGADFTLTISRVEPEDSAVYYCQQFDKSTWTFGQGTKVEIKAAAGSEQKLISEEDLNSHHHHHH

binding [4]: binds
B2: 9N10 scFv (scFv)
scFv: QVQLQESGGGLVHPGGSLRLSCAASGFTFSSYWMHWVRQAPGKGLVWVSRINSDGSSTSYADSVKGRFTISRDNAKNTLYLQMNSLRAEDTAVYYCARKILGVGARSRRYFDYWGQGTMVTVSSKLSGSASAPKLEEGEFSEARVDIVLTQTPDSLAVSLGETTTINCKSSQSVLHSSNNKNYLAWYQQKPGQPPKLLIYWASTRESGVPDRFSGSGSGTDFTLTISNLQPEDVAFYYCLQYSTFPRTFGQGTKVEIKAAAGSEQKLISEEDLNSHHHHHH
